Source: the supplement of paper PMC8728848
Some of the results follow.

Key:
Assay in all cases: glycan array binding signal (z-score within array); higher = stronger binding
Settings in all cases: glycan notation: IUPAC condensed, linker removed
[1] = biological target: Neu5Ac(a2-3)Gal(b1-4)GlcNAc(b1-6)GalNAc
Method in brief: (§1)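 Arrays were curated from the Consortium for Functional Glycomics database, 3228 in total, and kept only where the protein sequence was available. Binding is expressed as a within-array Z-score. This score was averaged across arrays of the same protein sequence at different concentrations or buffers and across linkers, and negative values can be read as non-binding.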

[2] = biological target: Neu5Ac(a2-3)Gal(b1-4)GlcNAc(b1-6)[Gal(b1-3)]GalNAc
Method in brief: as §1

[3] = biological target: Neu5Ac(a2-3)Gal(b1-4)GlcNAc(b1-6)[Neu5Ac(a2-3)Gal(b1-3)]GalNAc
Method in brief: as §1

[4] = biological target: Neu5Ac(a2-3)Gal(b1-4)GlcNAc6S
Method in brief: as §1

[5] = biological target: Neu5Ac(a2-3)Gal(b1-4)[Fuc(a1-3)]GlcNAc
Method in brief: as §1

[6] = biological target: Neu5Ac(a2-3)Gal(b1-4)[Fuc(a1-3)]GlcNAc(b1-2)Man
Method in brief: as §1

[7] = biological target: Neu5Ac(a2-3)Gal(b1-4)[Fuc(a1-3)]GlcNAc(b1-3)Gal
Method in brief: as §1

[8] = biological target: Neu5Ac(a2-3)Gal(b1-4)[Fuc(a1-3)]GlcNAc(b1-3)Gal(b1-4)GlcNAc
Method in brief: as §1

[9] = biological target: Neu5Ac(a2-3)Gal(b1-4)[Fuc(a1-3)]GlcNAc(b1-3)Gal(b1-4)[Fuc(a1-3)]GlcNAc(b1-3)Gal(b1-4)[Fuc(a1-3)]GlcNAc
Method in brief: as §1

[10] = biological target: Neu5Ac(a2-3)Gal(b1-4)[Fuc(a1-3)]GlcNAc(b1-3)GalNAc
Method in brief: as §1

[11] = biological target: Neu5Ac(a2-3)Gal(b1-4)[Fuc(a1-3)]GlcNAc(b1-6)[Gal(b1-3)]GalNAc
Method in brief: as §1

[12] = biological target: Neu5Ac(a2-3)Gal(b1-4)[Fuc(a1-3)]GlcNAc(b1-6)[Neu5Ac(a2-3)Gal(b1-3)]GalNAc
Method in brief: as §1

[13] = biological target: Neu5Ac(a2-3)Gal(b1-4)[Fuc(a1-3)]GlcNAc6S
Method in brief: as §1

[14] = biological target: Neu5Ac(a2-3)Gal6S(b1-4)GlcNAc
Method in brief: as §1

[15] = biological target: Neu5Ac(a2-3)Gal6S(b1-4)[Fuc(a1-3)]GlcNAc
Method in brief: as §1

Neu5Ac(a2-3)GalNAc = biological target: Neu5Ac(a2-3)GalNAc
Method in brief: as §1

[16] = biological target: Neu5Ac(a2-3)GalNAc(b1-4)GlcNAc
Method in brief: as §1

[17] = biological target: Neu5Ac(a2-3)[GalNAc(b1-4)]Gal(b1-4)Glc
Method in brief: as §1

[18] = biological target: Neu5Ac(a2-3)[GalNAc(b1-4)]Gal(b1-4)GlcNAc
Method in brief: as §1

[19] = biological target: Neu5Ac(a2-3)[GalNAc(b1-4)]Gal(b1-4)GlcNAc(b1-3)GalNAc
Method in brief: as §1

[20] = biological target: Neu5Ac(a2-3)[Neu5Ac(a2-6)]GalNAc
Method in brief: as §1

Neu5Ac(a2-6)Gal = biological target: Neu5Ac(a2-6)Gal
Method in brief: as §1

[21] = biological target: Neu5Ac(a2-6)Gal(b1-3)GlcNAc(b1-3)[Gal(b1-4)GlcNAc(b1-6)]Gal(b1-4)Glc
Method in brief: as §1

Neu5Ac(a2-6)Gal(b1-4)Glc = biological target: Neu5Ac(a2-6)Gal(b1-4)Glc
Method in brief: as §1

[22] = biological target: Neu5Ac(a2-6)Gal(b1-4)GlcNAc
Method in brief: as §1

[23] = biological target: Neu5Ac(a2-6)Gal(b1-4)GlcNAc(b1-2)Man
Method in brief: as §1

[24] = biological target: Neu5Ac(a2-6)Gal(b1-4)GlcNAc(b1-2)Man(a1-3)Man(b1-4)GlcNAc(b1-4)GlcNAc
Method in brief: as §1

[25] = biological target: Neu5Ac(a2-6)Gal(b1-4)GlcNAc(b1-2)Man(a1-3)[Gal(b1-4)GlcNAc(b1-2)Man(a1-6)]Man(b1-4)GlcNAc(b1-4)GlcNAc
Method in brief: as §1

[26] = biological target: Neu5Ac(a2-6)Gal(b1-4)GlcNAc(b1-2)Man(a1-3)[GlcNAc(b1-2)Man(a1-6)]Man(b1-4)GlcNAc(b1-4)GlcNAc
Method in brief: as §1

[27] = biological target: Neu5Ac(a2-6)Gal(b1-4)GlcNAc(b1-2)Man(a1-3)[GlcNAc(b1-4)][Neu5Ac(a2-6)Gal(b1-4)GlcNAc(b1-2)Man(a1-6)]Man(b1-4)GlcNAc(b1-4)GlcNAc
Method in brief: as §1

[28] = biological target: Neu5Ac(a2-6)Gal(b1-4)GlcNAc(b1-2)Man(a1-3)[Man(a1-6)]Man(b1-4)GlcNAc(b1-4)GlcNAc
Method in brief: as §1

[29] = biological target: Neu5Ac(a2-6)Gal(b1-4)GlcNAc(b1-2)Man(a1-3)[Neu5Ac(a2-3)Gal(b1-4)GlcNAc(b1-2)Man(a1-6)]Man(b1-4)GlcNAc(b1-4)GlcNAc
Method in brief: as §1

[30] = biological target: Neu5Ac(a2-6)Gal(b1-4)GlcNAc(b1-2)Man(a1-3)[Neu5Ac(a2-6)Gal(b1-4)GlcNAc(b1-2)Man(a1-6)]Man(b1-4)GlcNAc(b1-4)GlcNAc
Method in brief: as §1

[31] = biological target: Neu5Ac(a2-6)Gal(b1-4)GlcNAc(b1-2)Man(a1-3)[Neu5Ac(a2-6)Gal(b1-4)GlcNAc(b1-2)Man(a1-6)]Man(b1-4)GlcNAc(b1-4)[Fuc(a1-6)]GlcNAc
Method in brief: as §1

[32] = biological target: Neu5Ac(a2-6)Gal(b1-4)GlcNAc(b1-2)Man(a1-6)Man(b1-4)GlcNAc(b1-4)GlcNAc
Method in brief: as §1

[33] = biological target: Neu5Ac(a2-6)Gal(b1-4)GlcNAc(b1-2)Man(a1-6)[Gal(b1-4)GlcNAc(b1-2)Man(a1-3)]Man(b1-4)GlcNAc(b1-4)GlcNAc
Method in brief: as §1

[34] = biological target: Neu5Ac(a2-6)Gal(b1-4)GlcNAc(b1-2)Man(a1-6)[GlcNAc(b1-2)Man(a1-3)]Man(b1-4)GlcNAc(b1-4)GlcNAc
Method in brief: as §1

[35] = biological target: Neu5Ac(a2-6)Gal(b1-4)GlcNAc(b1-2)Man(a1-6)[Man(a1-3)]Man(b1-4)GlcNAc(b1-4)GlcNAc
Method in brief: as §1

[36] = biological target: Neu5Ac(a2-6)Gal(b1-4)GlcNAc(b1-2)[Neu5Ac(a2-6)Gal(b1-4)GlcNAc(b1-4)]Man(a1-3)[GlcNAc(b1-4)][Neu5Ac(a2-6)Gal(b1-4)GlcNAc(b1-2)[Neu5Ac(a2-6)Gal(b1-4)GlcNAc(b1-6)]Man(a1-6)]Man(b1-4)GlcNAc(b1-4)GlcNAc
Method in brief: as §1

[37] = biological target: Neu5Ac(a2-6)Gal(b1-4)GlcNAc(b1-2)[Neu5Ac(a2-6)Gal(b1-4)GlcNAc(b1-4)]Man(a1-3)[GlcNAc(b1-4)][Neu5Ac(a2-6)Gal(b1-4)GlcNAc(b1-4)Man(a1-6)]Man(b1-4)GlcNAc(b1-4)GlcNAc
Method in brief: as §1

[38] = biological target: Neu5Ac(a2-6)Gal(b1-4)GlcNAc(b1-2)[Neu5Ac(a2-6)Gal(b1-4)GlcNAc(b1-6)]Man(a1-6)[Neu5Ac(a2-6)Gal(b1-4)GlcNAc(b1-2)Man(a1-3)][GlcNAc(b1-4)]Man(b1-4)GlcNAc(b1-4)GlcNAc
Method in brief: as §1

[39] = biological target: Neu5Ac(a2-6)Gal(b1-4)GlcNAc(b1-3)Gal(b1-3)GlcNAc
Method in brief: as §1

[40] = biological target: Neu5Ac(a2-6)Gal(b1-4)GlcNAc(b1-3)Gal(b1-4)GlcNAc
Method in brief: as §1

[41] = biological target: Neu5Ac(a2-6)Gal(b1-4)GlcNAc(b1-3)Gal(b1-4)GlcNAc(b1-2)Man(a1-3)[Neu5Ac(a2-6)Gal(b1-4)GlcNAc(b1-3)Gal(b1-4)GlcNAc(b1-2)Man(a1-6)]GalNAc
Method in brief: as §1

[42] = biological target: Neu5Ac(a2-6)Gal(b1-4)GlcNAc(b1-3)Gal(b1-4)GlcNAc(b1-3)Gal(b1-4)GlcNAc
Method in brief: as §1

[43] = biological target: Neu5Ac(a2-6)Gal(b1-4)GlcNAc(b1-3)Gal(b1-4)GlcNAc(b1-3)Gal(b1-4)GlcNAc(b1-2)Man(a1-3)[Neu5Ac(a2-6)Gal(b1-4)GlcNAc(b1-3)Gal(b1-4)GlcNAc(b1-3)Gal(b1-4)GlcNAc(b1-2)Man(a1-6)]GalNAc
Method in brief: as §1

B1: SspB A3vp1 (Streptococcus gordonii), Q54186 (protein)
chain: MTNEADYQAKLAAYQTELARVQKANADAKATYEKAVEDNKAKNAAIKAENEEIKQRNAVAKTDYEAKLAKYEADLAKYKKEFAAYTAALAEAESKKKQDGYLSEPRSQSLNFKSEPNAIRTIDSSVHQYGQQELDALVKSWGISPTNPDRKKSRAYSYFNAINSNNTYAKLVLEKDKPVDVTYTGLKNSSFNGKKISKVVYTYTLKETGFNDGTKMTMFASSDPTVTAWYNDYFTSTNINVKVKFYDEEGQLMNLTGGLVNFSSLNRGNGSGAIDKDAIESVRNFNGRYIPISGSSIKIHENNSAYADSSNAEKSLGARWNTSEWDTTSSPNNWYGAIVGEITQSEISFNMASSKSGNIWFAFNSNINAIGVPTKPVAPTAPTQPMYETEKPLEPAPVAPSYENEPTPPVKTPDQPEPSKPAAALEHHHHHH
glycan array binding signal (z-score) [1]: -0.654
glycan array binding signal (z-score) [2]: -0.382
glycan array binding signal (z-score) [3]: -0.243
glycan array binding signal (z-score) [4]: -0.678
glycan array binding signal (z-score) [5]: -0.786
glycan array binding signal (z-score) [6]: 0.152
glycan array binding signal (z-score) [7]: -1.03
glycan array binding signal (z-score) [8]: -0.07
glycan array binding signal (z-score) [9]: -0.772
glycan array binding signal (z-score) [10]: 1.61
glycan array binding signal (z-score) [11]: 2.32
glycan array binding signal (z-score) [12]: 5.21
glycan array binding signal (z-score) [13]: -1.33
glycan array binding signal (z-score) [14]: -0.519
glycan array binding signal (z-score) [15]: -0.899
glycan array binding signal (z-score) (Neu5Ac(a2-3)GalNAc): -0.799
glycan array binding signal (z-score) [16]: -0.939
glycan array binding signal (z-score) [17]: -0.529
glycan array binding signal (z-score) [18]: -0.535
glycan array binding signal (z-score) [19]: 1.4
glycan array binding signal (z-score) [20]: -0.215
glycan array binding signal (z-score) (Neu5Ac(a2-6)Gal): -0.26
glycan array binding signal (z-score) [21]: -0.279
glycan array binding signal (z-score) (Neu5Ac(a2-6)Gal(b1-4)Glc): -0.774
glycan array binding signal (z-score) [22]: -0.982
glycan array binding signal (z-score) [23]: 0.384
glycan array binding signal (z-score) [24]: -0.219
glycan array binding signal (z-score) [25]: 0.313
glycan array binding signal (z-score) [26]: -0.881
glycan array binding signal (z-score) [27]: -1.08
glycan array binding signal (z-score) [28]: 1.37
glycan array binding signal (z-score) [29]: -0.749
glycan array binding signal (z-score) [30]: 0.421
glycan array binding signal (z-score) [31]: 1.05
glycan array binding signal (z-score) [32]: -0.675
glycan array binding signal (z-score) [33]: -0.084
glycan array binding signal (z-score) [34]: -0.617
glycan array binding signal (z-score) [35]: -0.153
glycan array binding signal (z-score) [36]: 0.273
glycan array binding signal (z-score) [37]: 0.627
glycan array binding signal (z-score) [38]: -0.503
glycan array binding signal (z-score) [39]: -0.052
glycan array binding signal (z-score) [40]: -0.406
glycan array binding signal (z-score) [41]: 1.68
glycan array binding signal (z-score) [42]: -0.566
glycan array binding signal (z-score) [43]: 1.36
